Measurements as given in patent US11338040B2, “Immunomodulatory compounds” (Leidos, Inc., priority 2020, dated 2022).
Some of these results come from one statement about several compounds together. Non-standard residues stand in square brackets, D forms with d. Residues, ends and D or L forms follow the SMILES beside them. PEG4 = NCCOCCOCCOCCOCCC(=O)O

target: T1, interaction between LAG3 and MHC-II (Homo sapiens, UniProt P18627); assay: HTRF (TR-FRET) LAG3/MHC-II binding assay; details: 10-fold dilutions starting at 100 μM or 10 μM; FIGS. 2A-9B
T1 construct: purchased Cisbio US Inc
T1 sequence (P18627 23-450 limits assumed): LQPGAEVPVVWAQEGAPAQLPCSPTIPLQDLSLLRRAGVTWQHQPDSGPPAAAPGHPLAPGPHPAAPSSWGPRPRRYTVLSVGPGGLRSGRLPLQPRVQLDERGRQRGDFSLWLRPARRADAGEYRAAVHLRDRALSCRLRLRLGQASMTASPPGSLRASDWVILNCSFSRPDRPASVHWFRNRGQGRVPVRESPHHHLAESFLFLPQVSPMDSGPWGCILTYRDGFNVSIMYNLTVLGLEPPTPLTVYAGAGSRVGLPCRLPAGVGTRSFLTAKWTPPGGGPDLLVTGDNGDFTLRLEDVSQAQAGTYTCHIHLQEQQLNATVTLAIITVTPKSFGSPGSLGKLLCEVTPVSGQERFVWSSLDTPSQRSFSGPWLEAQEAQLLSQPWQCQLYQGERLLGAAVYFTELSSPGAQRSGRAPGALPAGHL
Description: A Homogeneous Time-resolved Fluorescence (HTRF) LAG3/MHC-II binding assay (Cisbio US Inc.) was used to measure the interaction between MHC-II and LAG3 in the presence of various peptides and peptide conjugates. In this assay, the interaction between Tag1-LAG3 and Tag2-MHC-II is detected by using anti-Tag1-Terbium (HTRF donor) and anti-Tag2-XL665 (HTRF acceptor). When the donor and acceptor antibodies are brought into close proximity due to LAG3 and MHC-II binding, excitation of the donor antibody triggers fluorescent resonance energy transfer (FRET) towards the acceptor antibody, which in turn emits specifically at 665 nm. This specific signal is directly proportional to the extent of LAG3/MHC-II interaction. Thus, an agent that blocks the interaction between LAG3 and MHC-II will cause a reduction in HTRF ratio.
Each of peptide conjugates BT1, BT2, BT3, BT4, BT5, BT6, BT7, BT8, BT9, and peptides LG11 (LAG3-11), LAG3-56 (SEQ ID NO:5), and LAG3-42 (SEQ ID NO:6) was tested at 3 concentrations: 100 μM, 10 μM, and 1 μM. The dashed-lines represent the HTRF ratio readout of a control ovalbumin peptide (OVA, SEQ ID NO:7) (baseline) at the respective concentrations.
peptide conjugates and LG peptides were tested in full dilution curves in the LAG3:MHCII TR-FRET Assay described above to estimate IC50. peptide conjugates were tested starting at 100 μM or 10 μM. LG peptides were tested starting at 100 μM.

Compound | response in dilution curve (HTRF signal)
CC[C@H](C)[C@H](NC(=O)[C@H](CO)NC(=O)[C@@H](NC(=O)[C@H](CC(C)C)NC(=O)[C@H](CCCNC(=N)N)NC(=O)[C@@H](NC(=O)[C@H](CC(N)=O)NC(=O)[C@@H](NC(=O)[C@@H](NC(=O)[C@H](C)NC(=O)[C@@H]1CCCN1C(=O)[C@H](CC(C)C)NC(=O)[C@H](CO)NC(=O)[C@H](CCC(N)=O)NC(C)=O)[C@@H](C)O)[C@@H](C)CC)C(C)C)[C@@H](C)O)C(=O)N[C@@H](CCC(N)=O)C(=O)NCC(=O)N[C@H](C(=O)N[C@H](CO)C(=O)NCCOCCOCCOCCOCCC(=O)N[C@@H](Cc1c[nH]c2ccccc12)C(=O)N[C@@H](CCC(=O)O)C(=O)NCC(=O)N[C@H](C(=O)NCC(=O)N[C@@H](CCC(N)=O)C(=O)N[C@@H](Cc1c[nH]c2ccccc12)C(=O)N[C@@H](Cc1c[nH]c2ccccc12)C(=O)N[C@@H](CC(=O)O)C(=O)N[C@@H](CCC(=O)O)C(=O)N1CCC[C@H]1C(=O)N[C@@H](Cc1c[nH]c2ccccc12)C(=O)N[C@@H](Cc1c[nH]cn1)C(=O)N[C@@H](CC(C)C)C(=O)N1CCC[C@H]1C(=O)N[C@@H](CCC(=O)O)C(=O)N[C@@H](Cc1c[nH]c2ccccc12)C(=O)N1CCC[C@H]1C(=O)N[C@@H](C)C(=O)N[C@@H](CO)C(N)=O)[C@@H](C)O)[C@@H](C)O [BT6] (Ac-QSLPATINVRLTSIQGT[dS][PEG4]WEGTGQWWDEPWHLPEWPAS-NH2) | some level of antagonistic activity
CC[C@H](C)[C@H](NC(=O)[C@H](CO)NC(=O)[C@@H](NC(=O)[C@H](CC(C)C)NC(=O)[C@H](CCCNC(=N)N)NC(=O)[C@@H](NC(=O)[C@H](CC(N)=O)NC(=O)[C@@H](NC(=O)[C@@H](NC(=O)[C@H](C)NC(=O)[C@@H]1CCCN1C(=O)[C@H](CC(C)C)NC(=O)[C@H](CO)NC(=O)[C@H](CCC(N)=O)NC(C)=O)[C@@H](C)O)[C@@H](C)CC)C(C)C)[C@@H](C)O)C(=O)N[C@@H](CCC(N)=O)C(=O)NCC(=O)N[C@H](C(=O)N[C@H](CO)C(=O)NCCOCCOCCOCCOCCC(=O)N[C@@H](CO)C(=O)N[C@@H](C)C(=O)N1CCC[C@H]1C(=O)N[C@@H](Cc1c[nH]c2ccccc12)C(=O)N[C@@H](CCC(=O)O)C(=O)N1CCC[C@H]1C(=O)N[C@@H](CC(C)C)C(=O)N[C@@H](Cc1c[nH]cn1)C(=O)N[C@@H](Cc1c[nH]c2ccccc12)C(=O)N1CCC[C@H]1C(=O)N[C@@H](CCC(=O)O)C(=O)N[C@@H](CC(=O)O)C(=O)N[C@@H](Cc1c[nH]c2ccccc12)C(=O)N[C@@H](Cc1c[nH]c2ccccc12)C(=O)N[C@@H](CCC(N)=O)C(=O)NCC(=O)N[C@H](C(=O)NCC(=O)N[C@@H](CCC(=O)O)C(=O)N[C@@H](Cc1c[nH]c2ccccc12)C(N)=O)[C@@H](C)O)[C@@H](C)O [BT7] (Ac-QSLPATINVRLTSIQGT[dS][PEG4]SAPWEPLHWPEDWWQGTGEW-NH2) | some level of antagonistic activity
CC[C@H](C)[C@H](NC(=O)[C@H](CO)NC(=O)[C@@H](NC(=O)[C@H](CC(C)C)NC(=O)[C@H](CCCNC(=N)N)NC(=O)[C@@H](NC(=O)[C@H](CC(N)=O)NC(=O)[C@@H](NC(=O)[C@@H](NC(=O)[C@H](C)NC(=O)[C@@H]1CCCN1C(=O)[C@H](CC(C)C)NC(=O)[C@H](CO)NC(=O)[C@H](CCC(N)=O)NC(=O)CCOCCOCCOCCOCCNC(=O)[C@H](CO)NC(=O)[C@H](C)NC(=O)[C@@H]1CCCN1C(=O)[C@H](Cc1c[nH]c2ccccc12)NC(=O)[C@H](CCC(=O)O)NC(=O)[C@@H]1CCCN1C(=O)[C@H](CC(C)C)NC(=O)[C@H](Cc1c[nH]cn1)NC(=O)[C@H](Cc1c[nH]c2ccccc12)NC(=O)[C@@H]1CCCN1C(=O)[C@H](CCC(=O)O)NC(=O)[C@H](CC(=O)O)NC(=O)[C@H](Cc1c[nH]c2ccccc12)NC(=O)[C@H](Cc1c[nH]c2ccccc12)NC(=O)[C@H](CCC(N)=O)NC(=O)CNC(=O)[C@@H](NC(=O)CNC(=O)[C@H](CCC(=O)O)NC(=O)[C@@H](N)Cc1c[nH]c2ccccc12)[C@@H](C)O)[C@@H](C)O)[C@@H](C)CC)C(C)C)[C@@H](C)O)C(=O)N[C@@H](CCC(N)=O)C(=O)NCC(=O)N[C@H](C(=O)N[C@H](CO)C(N)=O)[C@@H](C)O [BT5] (H-WEGTGQWWDEPWHLPEWPAS[PEG4]QSLPATINVRLTSIQGT[dS]-NH2) | some level of antagonistic activity
CC[C@H](C)[C@H](NC(=O)[C@H](CCC(N)=O)NC(=O)CNC(=O)[C@@H](NC(=O)[C@@H](CO)NC(=O)CCOCCOCCOCCOCCNC(=O)[C@H](Cc1c[nH]c2ccccc12)NC(=O)[C@H](CCC(=O)O)NC(=O)CNC(=O)[C@@H](NC(=O)CNC(=O)[C@H](CCC(N)=O)NC(=O)[C@H](Cc1c[nH]c2ccccc12)NC(=O)[C@H](Cc1c[nH]c2ccccc12)NC(=O)[C@H](CC(=O)O)NC(=O)[C@H](CCC(=O)O)NC(=O)[C@@H]1CCCN1C(=O)[C@H](Cc1c[nH]c2ccccc12)NC(=O)[C@H](Cc1c[nH]cn1)NC(=O)[C@H](CC(C)C)NC(=O)[C@@H]1CCCN1C(=O)[C@H](CCC(=O)O)NC(=O)[C@H](Cc1c[nH]c2ccccc12)NC(=O)[C@@H]1CCCN1C(=O)[C@H](C)NC(=O)[C@@H](N)CO)[C@@H](C)O)[C@@H](C)O)C(=O)N[C@@H](CO)C(=O)N[C@H](C(=O)N[C@@H](CC(C)C)C(=O)N[C@@H](CCCNC(=N)N)C(=O)N[C@H](C(=O)N[C@@H](CC(N)=O)C(=O)N[C@H](C(=O)N[C@H](C(=O)N[C@@H](C)C(=O)N1CCC[C@H]1C(=O)N[C@@H](CC(C)C)C(=O)N[C@@H](CO)C(=O)N[C@@H](CCC(N)=O)C(N)=O)[C@@H](C)O)[C@@H](C)CC)C(C)C)[C@@H](C)O [BT2] | some level of antagonistic activity
H2N-(dS)TGQISTLRVNITAPLSQ^1-PEG4-SAPWEPLHWPEDWWQGTGEW^3-amide [BT1] | some level of antagonistic activity
CC[C@H](C)[C@H](NC(=O)[C@H](CO)NC(=O)[C@@H](NC(=O)[C@H](CC(C)C)NC(=O)[C@H](CCCNC(=N)N)NC(=O)[C@@H](NC(=O)[C@H](CC(N)=O)NC(=O)[C@@H](NC(=O)[C@@H](NC(=O)[C@H](C)NC(=O)[C@@H]1CCCN1C(=O)[C@H](CC(C)C)NC(=O)[C@H](CO)NC(=O)[C@H](CCC(N)=O)NC(=O)CCOCCOCCOCCOCCNC(=O)[C@H](Cc1c[nH]c2ccccc12)NC(=O)[C@H](CCC(=O)O)NC(=O)CNC(=O)[C@@H](NC(=O)CNC(=O)[C@H](CCC(N)=O)NC(=O)[C@H](Cc1c[nH]c2ccccc12)NC(=O)[C@H](Cc1c[nH]c2ccccc12)NC(=O)[C@H](CC(=O)O)NC(=O)[C@H](CCC(=O)O)NC(=O)[C@@H]1CCCN1C(=O)[C@H](Cc1c[nH]c2ccccc12)NC(=O)[C@H](Cc1c[nH]cn1)NC(=O)[C@H](CC(C)C)NC(=O)[C@@H]1CCCN1C(=O)[C@H](CCC(=O)O)NC(=O)[C@H](Cc1c[nH]c2ccccc12)NC(=O)[C@@H]1CCCN1C(=O)[C@H](C)NC(=O)[C@@H](N)CO)[C@@H](C)O)[C@@H](C)O)[C@@H](C)CC)C(C)C)[C@@H](C)O)C(=O)N[C@@H](CCC(N)=O)C(=O)NCC(=O)N[C@H](C(=O)N[C@H](CO)C(N)=O)[C@@H](C)O [BT4] (H-SAPWEPLHWPEDWWQGTGEW[PEG4]QSLPATINVRLTSIQGT[dS]-NH2) | some level of antagonistic activity
